# Screening data, single-dose tests

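Cell assay of Leishmania donovani living inside macrophages; the read-out is not stated. Concentration: 30 µM. Direction is inferred from retests: higher values go with stronger inhibition. Size under these conditions: about 69,000 compounds, about 1,000 of them at 50% or above in at least one test.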

Each number is a percent effect as filed.
The record does not define 0% and 100%; most values in the screen are far below 50% and negative numbers occur (in some assays of this library far below -100).
Compounds were drawn at random from those tested, without regard to their results.
Two or more numbers in one place are separate tests of the same structure; such repeats can differ widely.

SMILES	effect
O=c1cc(Cn2ccnc2)nc2n1CCCN(Cc1ccco1)C2	-1.459
O=C(NCCC(=O)N1CCCc2ccccc21)c1c(O)cc(F)cc1F	50.32
Cc1ccccc1C(NC(=O)CNC(=O)c1ccoc1C)C(C)C (centres undefined)	6.663
CCCNC(=O)Cn1nc(C)c2cnn(C(C)(C)C)c2c1=O	-8.635
CCNC(=O)CN(CC)C(=O)c1cc(-c2cccc(Cl)c2)no1	-6.69
O=C(CSc1ccc(Br)cc1)NS(=O)(=O)c1ccc2c(c1)OCCO2	4.152
Cc1ccc(C(=O)NS(=O)(=O)c2cc(F)ccc2F)c(=O)[nH]1	5.668
O=C(c1ncccn1)N1CCC[C@]2(C[C@H](OCC3CC3)CO2)C1	16.63
Cc1c[nH]c(C2CCCN(C(=O)CCc3c(C)n[nH]c3C)C2)n1 (centres undefined)	14.38
Cn1c(C(=O)NC(Cc2ccsc2)c2cccnc2)cc(=O)n(C)c1=O (centres undefined)	-2.809
CCCn1cc(C(=O)N2CCCC(Cc3nccs3)C2)cn1 (centres undefined)	10.68 and -3.203
CC(NC(=O)NCCC1=CCCCC1)c1nncn1C (centres undefined)	-41.09
COc1cc(N2CCc3ncnc(-c4ccoc4)c3CC2)ncn1	23.42
[H][C@@]12CCN(C(C)=O)C[C@]1([H])OCCN(c1ccsc1)C2=O	-3.834
CC(=O)N[C@@H]1CN(C(=O)CC2CC2)C[C@H]1O	-10.3
CC(Cn1cc(Br)cn1)C(=O)Nc1ccncc1 (centres undefined)	-4.287
[H][C@@]12CCN(C(=O)C3CCCC3)[C@]1([H])C(=O)N(c1ccc(C)cc1)C(=O)N2	-3.723
CN1CCN(CC2(O)CCCN(C(=O)Cc3cccc(O)c3)CC2)CC1 (centres undefined)	-28.45
Cc1cccn2cc(CC(=O)N(CCN(C)C)CC3CCCO3)nc12 (centres undefined)	-14.27
CCN(CC)S(=O)(=O)c1ccc(C(=O)NC(C)(C)C)cc1	8.152
Cc1nc(C)c(CC(=O)N2CCCN(CC3CC3)C(C(C)C)C2)c(=O)[nH]1 (centres undefined)	-6.252
O=C(c1cnc(C2CC2)nc1O)N1CCN(Cc2ccccc2F)CC1	-21.71 and 2.603
CNC(=O)Cc1noc(Cc2ccc3c(c2)CCCC3)n1	-15.28
O=C(O)C(F)(F)F.O=C(O)C(F)(F)F.c1coc(CN2CCCn3c(CN4CCOCC4)nnc3C2)c1	2.025
COc1cc(C(=O)NS(=O)(=O)c2ccc(C#N)cc2)ccc1C	-10.88
COc1ccc(-n2ccc(CNCc3ccc(OC)c(O)c3)n2)cc1	-21.77
Cc1nc(C)n(CCNS(=O)(=O)NCc2ccccc2)n1	-20.8
COc1ccccc1Oc1ncccc1CNC(=O)C(C)CN (centres undefined)	-2.082
CSCC(CCO)NC(=O)Nc1cc(C)ccc1C (centres undefined)	14.82
CC(C)Cn1cc(C(=O)NC2CCS(=O)(=O)C2)c2ccccc2c1=O (centres undefined)	-35.91
Nc1nc2c(c(N3CCCC3)n1)CCN(Cc1ccccn1)CC2	11.65
Cc1ncsc1C(=O)N1CCC(c2ncncc2-c2ccnc(N)c2)C1 (centres undefined)	39.95
Cc1ccc(-c2ncc(C(=O)N3CCN4CCCCC4C3)c(O)n2)cc1 (centres undefined)	11.82
COCc1cncc2c1CCN(C(=O)c1ccc(C)o1)C2	-21.5
Cc1nc(CNCc2c(C)nn(C)c2N2CCOCC2)cs1	25.84
CCOCc1ccccc1NC(=O)NC1CCN(c2ccccc2)C1 (centres undefined)	-9.71
CC(C)(C)CNC[C@H]1Cn2ccnc2CO1	20.67
COc1cccc2c1OCC(CNc1cc(N)nc(SC)n1)C2 (centres undefined)	21.08
COc1c(C2CCCN2C(=O)c2c(C)noc2C(C)C)c(C)nn1C (centres undefined)	-21.23
[H][C@@]12CCC(=O)N(c3ccccc3)[C@]1([H])CCN2C(=O)c1ccoc1	16.5
CC(C)(C)c1nc(CN2CCC(N3CCCCC3)CC2)no1	18.84
COC(=O)[C@@H]1Cc2ncn(C(C)C)c2CN1S(=O)(=O)Cc1ccccc1	12.57
O=C(Cc1ccc2c(c1)CCC2)NC1CCN(Cc2ccccc2)CC1	-10.36
Cn1cccc1C(O)CNS(=O)(=O)Cc1ccccc1 (centres undefined)	-2.885 and 20.52
Cc1ccc(CN(C)CC(=O)NC2(C)CCS(=O)(=O)C2)cc1 (centres undefined)	13.67
COc1ccccc1CCC(=O)N1CCCC(OCc2cccnc2)C1 (centres undefined)	18.91
CCCNC(=O)CCNC(=O)c1sc2ccc(F)cc2c1C	-0.3686
CCC(C(=O)N(C)Cc1cc(COC)[nH]n1)n1cccn1 (centres undefined)	2.19
O=C(CCn1cc(Cl)cn1)N1CCCC(O)(CO)CC1 (centres undefined)	-3.414
Cc1nc(C2CCCN(C(=O)CO)C2)cc(N2CCOCC2)n1 (centres undefined)	25.75
O=C(c1[nH]nc(C2CC2)c1Cl)N1CCN(C2CC2)CC1	17.3
CN1CCN(Cc2ccc(F)cc2)Cc2cccnc21	34.74
Cn1nc(C(=O)NCc2ccc(OC3CCCCC3)nc2)ccc1=O	44.34
O=C(O)C(F)(F)F.O=C(O)C(F)(F)F.[H][C@@]12CCN(Cc3cccc(C)n3)[C@@]1([H])CCN2C(=O)Cc1cccs1	18.3
O=C(c1ccc2[nH]cnc2c1)N1CCC(COc2ccccn2)CC1	9.444
O=C(O)C(F)(F)F.[H][C@@]12CN(C(=O)c3ccsc3)C[C@]1([H])C(=O)N(Cc1cccnc1)C2	13.52
O=C(N1CCN(c2ccccc2O)CC1)C1(O)Cc2ccccc2C1	14.39
CN(CCN1CCCCCC1)C(=O)c1cc(CN2CCCC(O)C2)on1 (centres undefined)	28.93
Cc1nc(CN2CCN(C(=O)COCc3ccccc3)CC2)no1	10.83
CCN1CCCC1CNC(=O)CCc1cccs1 (centres undefined)	2.639
OC[C@@H](O)CN(CCC(F)(F)F)c1ncc(Cl)cn1	8.394
COCCN(C)C[C@@H]1CN(C(=O)c2ccoc2)C[C@@H]1CO	20.66
Cc1nc(C)n(CC2CCCN(Cc3cccnc3)C2)n1 (centres undefined)	33.1
Cc1cccc(N2CCCC2c2nc(C)ncc2CN(C)C)n1 (centres undefined)	38.34
CC1=C[C@@H](CC#N)[C@H](C(C)C)C[C@H]1CC(=O)N1CCN(CCO)CC1	7.616
COc1ccc(C(C)N2CCC(NS(C)(=O)=O)CC2)cc1Cl (centres undefined)	-21.42
CCn1cc(CN2CCCC(CO)(CCc3ccccc3)C2)c(C)n1 (centres undefined)	25.63
Cc1ccc(-n2cnnn2)cc1NCC(=O)Nc1ccccc1Cl	35.95
CS(=O)(=O)CCSc1cccc(C#N)c1	16.39
CC(C)S(=O)(=O)N1C[C@@H](O)[C@H](N(C)Cc2ccc(F)cc2)C1	12.45
CCC(C(=O)NC1CCCCC1)n1ccc2ncccc2c1=O (centres undefined)	17.46
CN1CCN(c2cc(N3CCCC3CO)ncn2)Cc2ccccc21 (centres undefined)	-8.481
COCCN1CCC(NC(=O)C/C=C/c2ccc(C(C)C)cc2)CC1	51.69
Cc1ncsc1C(=O)NC1CCN(c2ncccc2C#N)CC1	18.27
CCN1CCN(c2nc(C(C)C)nc3c(C)nn(CC)c23)CC1	12.75
O=C(O)C(F)(F)F.[H][C@@]12CCN(C(=O)c3ccccc3)[C@@]1([H])CC(=O)N2CCN1CCOCC1	14.1
COc1cccc(-c2noc(C3CCN(Cc4cn(C)nc4C)C3)n2)c1 (centres undefined)	24.95
CC1(C)Cc2ccc(C(=O)NC3CCOCC3)c(O)c2O1	16.35
CCCC(C(=O)NCCc1nc(C)cs1)N(C)C (centres undefined)	22.35
CC(C)c1nccn1CC1CCCN1Cc1nc2ccccc2n1C (centres undefined)	18.58
O=c1[nH][nH]cc1-c1ccnc(NCCc2ccc(F)cc2)n1	28.29 and 22.33
CCc1nc(CNC2CCN(c3ccc(OC)cc3)CC2)cs1	11.68
CCCS(=O)(=O)N1CCCC1c1cccc(N(C)C)c1 (centres undefined)	-4.218
CCN(CC)C(=O)c1nc2c(s1)CCN(C(=O)CCC(=O)OC)CC2	24.27
Cc1nc(CC(=O)NCCNc2nccc(C(F)(F)F)n2)cs1	19.55
CN(C)c1cncc(C2CCCN(c3cnccn3)C2)n1 (centres undefined)	26.97
CC(=O)N1CCN(Cc2c(C)ccc3ccccc23)CC(O)C1 (centres undefined)	14.45
Cc1nnc(NC(=O)CN2CCc3nn(C(C)C)c(=O)cc3C2)s1	0.6024
N#Cc1c[nH]c(C(=O)N(Cc2ccc(O)cc2)CC2CC2)c1	-2.313

The first 5 entries again:

With O=c1cc(Cn2ccnc2)nc2n1CCCN(Cc1ccco1)C2 the screen gave -1.459%.
With O=C(NCCC(=O)N1CCCc2ccccc21)c1c(O)cc(F)cc1F the screen gave 50.32%.
With Cc1ccccc1C(NC(=O)CNC(=O)c1ccoc1C)C(C)C (centres undefined) the screen gave 6.663%.
With CCCNC(=O)Cn1nc(C)c2cnn(C(C)(C)C)c2c1=O the screen gave -8.635%.
With CCNC(=O)CN(CC)C(=O)c1cc(-c2cccc(Cl)c2)no1 the screen gave -6.69%.

Source: ChEMBL document CHEMBL3988442, “University of Dundee, Small-Polar-MMV Screening Library” (2021).